These are yes or no findings as the source states them, for the method shown. Some results given as binding are weak or reduced against the parent protein; the word gives no strength.
Biological target: CD94-NKG2C complex expressed on Ba/F3 cells (human CD94, human NKG2C and human DAP12) (human) (UniProt Q13241+P26717+O43914)
Experiment: flow cytometry staining of Ba/F3 transfectants, PE-conjugated anti-human IgG1

Protein sequences, listed by entry. Tags and fused reporters are not part of them. Lines headed by an entry give the natural chain unless they say otherwise; changes in a name come on top.
UniProt Q13241: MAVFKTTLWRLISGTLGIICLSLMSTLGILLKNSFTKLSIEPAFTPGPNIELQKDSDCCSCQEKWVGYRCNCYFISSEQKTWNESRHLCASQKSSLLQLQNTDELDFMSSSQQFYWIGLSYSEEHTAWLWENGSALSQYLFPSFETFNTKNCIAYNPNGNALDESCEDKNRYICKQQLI
UniProt P26717: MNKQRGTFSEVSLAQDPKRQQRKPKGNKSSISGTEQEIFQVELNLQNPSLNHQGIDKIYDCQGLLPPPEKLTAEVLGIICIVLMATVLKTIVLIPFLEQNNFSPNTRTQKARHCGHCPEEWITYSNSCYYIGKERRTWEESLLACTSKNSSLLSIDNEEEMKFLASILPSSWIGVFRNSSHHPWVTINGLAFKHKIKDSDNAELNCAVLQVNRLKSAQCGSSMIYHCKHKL
UniProt O43914: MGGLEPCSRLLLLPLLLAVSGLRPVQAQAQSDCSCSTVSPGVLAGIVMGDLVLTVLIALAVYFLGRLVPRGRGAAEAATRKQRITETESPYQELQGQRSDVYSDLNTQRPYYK

| binding | Binder |
| --- | --- |
| binds | JLS002-rAB22 IgG (antibody, V domains shown, also called rab22 JIS002 rab 22) VH: EVQLVESGGGLVQPGGSLRLSCAASGFNVYSSSIHWVRQAPGKGLEWVAYISSYSGYTYYADSVKGRFTISADTSKNTAYLQMNSLRAEDTAVYYCARGRYQGMDYWGQGTLVTVSS VL: DIQMTQSPSSLSASVGDRVTITCRASQSVSSAVAWYQQKPGKAPKLLIYSASSLYSGVPSRFSGSRSGTDFTLTISSLQPEDFATYYCQQYAYHLITFGQGTKVEIK |
| binds | JLS002-rAB23 IgG (antibody, V domains shown, also called JSI002 rab 23) VH: EVQLVESGGGLVQPGGSLRLSCAASGFNVYSSSIHWVRQAPGKGLEWVASISSYSGSTSYADSVKGRFTISADTSKNTAYLQMNSLRAEDTAVYYCARYGYYMSGAMDYWGQGTLVTVSS VL: DIQMTQSPSSLSASVGDRVTITCRASQSVSSAVAWYQQKPGKAPKLLIYSASSLYSGVPSRFSGSRSGTDFTLTISSLQPEDFATYYCQQKKAYSLITFGQGTKVEIK |
